Assay results as given in article PMC6611588, “Quantitative high-throughput screening assays for the discovery and development of SIRPα-CD47 interaction inhibitors” (PLoS ONE, 2019).
No constants are given. Whether binding was seen depends on the method and setting.

What was measured:
SIRPα-biotin [1] = target: SIRPα-biotin (UniProt P78324); test: SEC; Superdex 75 in 20 mM HEPES pH 7.5, 0.15 M NaCl; purified SIRPα alone; both purified
SIRPα-biotin [2] = target: SIRPα-biotin (UniProt P78324); test: SAXS; small-angle x-ray scattering of SIRPα-Avi in solution, 3 mg/mL and 4 mg/mL samples; methods in S1 File; both purified

binding (SIRPα-biotin [1]): no binding
binding (SIRPα-biotin [2]): no binding (tested: 1.8 mM)
B1: SIRPα-biotin (domain or fragment, UniProt P78324 31-149, looked up)
chain: EEELQVIQPDKSVLVAAGETATLRCTATSLIPVGPIQWFRGAGPGRELIYNQKEGHFPRVTTVSDLTKRNNMDFSIRIGNITPADAGTYYCVKFRKGSPDDVEFKSGAGTELSVRAKPS
modifications: biotin on the C-terminal Avi-Tag (BirA in vitro, >98% incorporation)
notes: SIRPα (SHPS-1) isoform 1 allele 1, extracellular domain d1, residues 31-149 of UniProt P78324, codon-optimised; Not glycosylated (made in E. coli); also called SIRPα-Avi (before biotinylation); SHPS-1 isoform 1 extracellular domain d1; not shown: His6-thioredoxin-SUMO, N-terminal, cleaved; Avi-Tag, C-terminal, kept
